Data as given in PubChem BioAssay AID1159584 (Peter MacCallum Cancer Centre, 2016).
The deposit covers about 18,000 reagents; shown is a part drawn at random. Further read-outs or replicates are left out here. The record does not give: the amount of reagent, the time to read-out.

- Test: 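Knock-downs that harm CDH1-null cells more than parental MCF10A cells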 (primary screen)
- System: human MCF10A breast epithelial cells, parental and CDH1-null
- Reagent: siRNA against human genes
- Detection: 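Cell viability by CellTiter-Glo ATP luminescence, each line scaled to the mean of mock wells across plates, then CDH1-null over parental ratio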
- Reading the numbers: CDH1-null / parental viability ratio: higher = CDH1-null cells survive relatively better than parental

UNC80 (GeneID 285175)
- CDH1-null / parental viability ratio: 1.06

TTC9B (GeneID 148014)
- CDH1-null / parental viability ratio: 0.85

EPS15 (GeneID 2060)
- CDH1-null / parental viability ratio: 1.14

GBA3 (GeneID 57733)
- CDH1-null / parental viability ratio: 1.15

SNF8 (GeneID 11267)
- CDH1-null / parental viability ratio: 0.81

ARID4A (GeneID 5926)
- CDH1-null / parental viability ratio: 0.47

RUSC1-AS1 (GeneID 284618)
- CDH1-null / parental viability ratio: 0.97

C3P1 (GeneID 388503)
- CDH1-null / parental viability ratio: 1.03

LCP2 (GeneID 3937)
- CDH1-null / parental viability ratio: 1.3

ZNF701 (GeneID 55762)
- CDH1-null / parental viability ratio: 1.15

CCL22 (GeneID 6367)
- CDH1-null / parental viability ratio: 0.81

TMIE (GeneID 259236)
- CDH1-null / parental viability ratio: 1.22

MELK (GeneID 9833)
- CDH1-null / parental viability ratio: 0.93

CA7 (GeneID 766)
- CDH1-null / parental viability ratio: 1.05

CCN4 (GeneID 8840)
- CDH1-null / parental viability ratio: 0.91

PRR5 (GeneID 55615)
- CDH1-null / parental viability ratio: 1.14

ATP6V0E1 (GeneID 8992)
- CDH1-null / parental viability ratio: 1.26

TALDO1 (GeneID 6888)
- CDH1-null / parental viability ratio: 1.02

RABEPK (GeneID 10244)
- CDH1-null / parental viability ratio: 1.13

SLITRK6 (GeneID 84189)
- CDH1-null / parental viability ratio: 0.88

GCH1 (GeneID 2643)
- CDH1-null / parental viability ratio: 1.04

CFI (GeneID 3426)
- CDH1-null / parental viability ratio: 0.89

CHAT (GeneID 1103)
- CDH1-null / parental viability ratio: 0.92

AQP3 (GeneID 360)
- CDH1-null / parental viability ratio: 0.91

ASB13 (GeneID 79754)
- CDH1-null / parental viability ratio: 1.1

ZNF337 (GeneID 26152)
- CDH1-null / parental viability ratio: 1

STC1 (GeneID 6781)
- CDH1-null / parental viability ratio: 0.83

TUT4 (GeneID 23318)
- CDH1-null / parental viability ratio: 0.75

ANGPTL5 (GeneID 253935)
- CDH1-null / parental viability ratio: 0.88

CSGALNACT2 (GeneID 55454)
- CDH1-null / parental viability ratio: 1.1

ERVW-1 (GeneID 30816)
- CDH1-null / parental viability ratio: 0.87

FAM178B (GeneID 51252)
- CDH1-null / parental viability ratio: 1.05

CHCT1 (GeneID 124773)
- CDH1-null / parental viability ratio: 0.94

FGF13 (GeneID 2258)
- CDH1-null / parental viability ratio: 0.84

BBS2 (GeneID 583)
- CDH1-null / parental viability ratio: 0.87

IPCEF1 (GeneID 26034)
- CDH1-null / parental viability ratio: 0.84

TMEM100 (GeneID 55273)
- CDH1-null / parental viability ratio: 0.82

KLHL36 (GeneID 79786)
- CDH1-null / parental viability ratio: 1

MEFV (GeneID 4210)
- CDH1-null / parental viability ratio: 0.82

PRLHR (GeneID 2834)
- CDH1-null / parental viability ratio: 1.4

RNPEP (GeneID 6051)
- CDH1-null / parental viability ratio: 0.9

OR2A25 (GeneID 392138)
- CDH1-null / parental viability ratio: 0.65

TRIM21 (GeneID 6737)
- CDH1-null / parental viability ratio: 0.96

ZNF546 (GeneID 339327)
- CDH1-null / parental viability ratio: 1.04

ENOSF1 (GeneID 55556)
- CDH1-null / parental viability ratio: 0.8

Laid out differently: results already given
Gene | CDH1-null / parental viability ratio
PRR5 (GeneID 55615) | 1.14
ATP6V0E1 (GeneID 8992) | 1.26
TALDO1 (GeneID 6888) | 1.02
RABEPK (GeneID 10244) | 1.13
SLITRK6 (GeneID 84189) | 0.88
GCH1 (GeneID 2643) | 1.04
